Data as given in US20190194319A1.
Results are given in words; binding and its absence hold for the method and conditions named. Some results given as binding are weak or reduced against the parent protein; the word gives no strength.

Protein sequences, listed by entry. Tags and fused reporters are not part of them. Lines headed by an entry give the natural chain unless they say otherwise; changes in a name come on top.
UniProt P50553: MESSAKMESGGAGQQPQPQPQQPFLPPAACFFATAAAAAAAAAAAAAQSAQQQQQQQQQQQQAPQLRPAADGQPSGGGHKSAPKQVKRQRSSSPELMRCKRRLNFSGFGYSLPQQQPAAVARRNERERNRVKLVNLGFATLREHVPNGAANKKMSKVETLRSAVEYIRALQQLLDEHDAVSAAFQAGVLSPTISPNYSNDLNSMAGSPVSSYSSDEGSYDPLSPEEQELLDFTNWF

Biological target: human ASCL1 (Achaete-scute homolog 1) (human) (UniProt P50553)
Test: screening of Example 2 (ELISA) or cells

binding: binds
B1: SC72.165 (antibody, V domains shown)
VH: QVQLQQPGAELVRPGASVRLSCKASGYSFTSYWINWVKQRPGQGLEWIGNIYPGSSNTNYNEKFKRKATLTVDTSSSTAYMQLSSLTSDDSAVYYCARSESDYWGQGTTLTVSS
VL: DIVLTQSPASLAVSPGQRATISCKASQSVGYDGDTYLSWYQQKPGQPPKLLIYGVSILESGIPARFSGSGSGTDFTLNIHPVEEEDAATYYCQQSSEDPYTFGGGTKLEIK
